Experimental data from article PMC12382740 (Antibiotics, 2025).

Legend:
[1] = test system: human erythrocytes; assay: Hemolysis assay; format: cell-based; conditions: ratio of hemolysis IC50 to MIC90
Method: Commercially available human blood (IWB1K2E10ML, Innovative Research Inc., Novi, MI, USA) was used to produce a 50% haematocrit solution by mixing at 1:1 with PBS 1× (P5493, 1 L, Sigma, St. Louis, MO, USA). Three consecutive PBS 1× washes plus centrifugation at 2600 rpm for 10 min steps were performed. Finally, a 2% erythrocyte solution was prepared in PBS 1× and chilled on ice until used. Polypropylene plates were filled with 50 µL PBS 1× per well for the samples and 50 µL 2% Triton X-100 (TX-100, 9002-93-1, 100 mL, Sigma, St. Louis, MO, USA) for the hemolysis controls. A solution at 4× final concentration of the assay of each peptide was prepared in PBS and 50 µL were added to the first column of each plate, followed by serial dilutions in the microplate. Then, 50 µL of the 2% erythrocyte solution was added to each plate. […] controls consisted in a 1:1 mix of PBS 1× and erythrocytes at 2%. Plates were incubated at 37 °C for 4 h and then centrifuged at 1500 rpm for 5 min. Eighty µL were extracted from the supernatant of each well carefully and transferred to a polystyrene flat bottom plate for reading and read at 450 nm in an Epoch microplate spectrophotometer (Epoch™, BioTek, Winooski, VT, USA).
The therapeutic index is a widely accepted parameter to represent the specificity of antimicrobial peptides for prokaryotic versus eukaryotic cells. It is calculated by the ratio of HC50 (hemolytic activity) and MIC (antimicrobial activity); thus, larger values of therapeutic index indicate greater specificity for prokaryotic cells.

[2] = Fmoc solid-phase peptide synthesis; Wang resin preloaded with Tyr; DIC/Oxyma; conditions: whole synthesis, 214 nm, scale 0.10 mmol

Compound | Therapeutic Index (IC50/MIC90) P. aeruginosa [1] | crude HPLC purity [2]
CC[C@@H](C)[C@@H](NC(=O)[C@@H](CCCCN)NC(=O)[C@@H](CCCCN)NC(=O)[C@@H](CC(C)C)NC(=O)[C@@H](CCCCN)NC(=O)[C@@H](CCC(=O)O)NC(=O)[C@@H](CCCCN)NC(=O)[C@H](NC(=O)[C@@H](CCCCN)NC(=O)[C@@H](CC(N)=O)NC(=O)[C@@H](CCCNC(=N)N)NC(=O)[C@@H](Cc1ccccc1)NC(=O)[C@@H](CCCCN)NC(=O)[C@@H](CCCNC(=N)N)NC(=O)[C@@H](CC(C)C)NC(=O)[C@@H](CCCNC(=N)N)NC(=O)[C@@H](CCCCN)NC(=O)[C@@H](CCCNC(=N)N)NC(=O)[C@@H](CC(C)C)NC(=O)CN)[C@H](C)CC)C(=O)NCC(=O)N[C@H](CCC(N)=O)C(=O)N[C@H](CCCCN)C(=O)N[C@@H](C(=O)N[C@H](CCC(N)=O)C(=O)NCC(=O)N[C@H](CC(C)C)C(=O)N[C@H](CC(C)C)C(=O)N1CCC[C@@H]1C(=O)N[C@H](CCCCN)C(=O)N[C@H](CC(C)C)C(=O)N[C@H](C)C(=O)N1CCC[C@@H]1C(=O)N[C@H](CCCNC(=N)N)C(=O)N[C@@H](C(=O)N[C@H](CC(=O)O)C(=O)N[C@H](Cc1ccc(O)cc1)C(=O)O)[C@H](C)O)[C@H](C)CC [D-CAP-18, Glrkrlrkfrnkikeklkkigqkiqgllpklaprtdy] (H-G[dL][dR][dK][dR][dL][dR][dK][dF][dR][dN][dK][dI][dK][dE][dK][dL][dK][dK][dI]G[dQ][dK][dI][dQ]G[dL][dL][dP][dK][dL][dA][dP][dR][dT][dD][dY]-OH) | 137.4 | 
CC[C@@H](C)[C@@H](NC(=O)[C@@H](CCCCN)NC(=O)[C@@H](CCCCN)NC(=O)[C@@H](CC(C)C)NC(=O)[C@@H](CCCCN)NC(=O)[C@@H](CCC(=O)O)NC(=O)[C@@H](CCCCN)NC(=O)[C@H](NC(=O)[C@@H](CCCCN)NC(=O)[C@@H](CC(N)=O)NC(=O)[C@@H](CCCNC(=N)N)NC(=O)[C@@H](Cc1ccccc1)NC(=O)[C@@H](CCCCN)NC(=O)[C@@H](CCCNC(=N)N)NC(=O)[C@@H](CC(C)C)NC(=O)[C@@H](CCCNC(=N)N)NC(=O)[C@@H](CCCCN)NC(=O)[C@@H](CCCNC(=N)N)NC(=O)[C@@H](CC(C)C)NC(=O)CN)[C@H](C)CC)C(=O)NCC(=O)N[C@H](CCC(N)=O)C(=O)N[C@H](CCCCN)C(=O)N[C@@H](C(=O)N[C@H](CCC(N)=O)C(=O)NCC(=O)N[C@H](CC(C)C)C(=O)N[C@H](CC(C)C)C(=O)N1CCC[C@@H]1C(=O)N[C@H](CCCCN)C(=O)N[C@H](CC(C)C)C(=O)O)[C@H](C)CC [D-CAP-18_31, Glrkrlrkfrnkikeklkkigqkiqgllpkl] (H-G[dL][dR][dK][dR][dL][dR][dK][dF][dR][dN][dK][dI][dK][dE][dK][dL][dK][dK][dI]G[dQ][dK][dI][dQ]G[dL][dL][dP][dK][dL]-OH) | 25.3 | 
GLRKRLRKFRNKIKEKLKKIGQKIQGLLPKLAPRTDY [CAP-18] | 39.6 | 
H-GLRKRLRKFRNKIKEKLKKIGQKIQGLLPKL-OH [CAP-18_31] | 43.2 | 
PEPTIDE1{G.L.R.K.R.L.R.K.F.R.N.K.I.K.E.K.L.K.K.I.G.Q.K.I.Q.G.L.L.P.K.L.A.P.R.T.D.Y}$$$$V2.0 |  | 92% pure

For some assays here: Some peptides are written in HELM: one residue between dots, names in brackets for other building blocks, links after the first $. Square brackets hold non-standard residues; d marks the D form. Ends that are not written are not given here. Peptide text beside a SMILES is read from it.
